Substitutions are numbered along the chain they refer to. These are yes or no findings as the source states them, for the method shown. Some entries that bind do so weakly or less than the wild type. Values belong to the binder of their own block, whether it stands above or below them.
Columns and labels:
[1] = molecular target: hPTK7-His (soluble His-tagged human PTK7 extracellular domain) (human) (UniProt Q13308); assay: SPR, Biacore
[2] = molecular target: hPTK7-His (soluble His-tagged human PTK7 extracellular domain) (human) (UniProt Q13308); assay: screening on immobilized human PTK7; members named in paragraph 345
[3] = molecular target: hPTK7-His (soluble His-tagged human PTK7 extracellular domain) (human) (UniProt Q13308); assay: ForteBio bio-layer interferometry, one antigen concentration (400 nM)
[4] = molecular target: hPTK7-His (soluble His-tagged human PTK7 extracellular domain) (human) (UniProt Q13308); assay: Biacore surface plasmon resonance, antigen concentration series

Sequences of proteins named here, by UniProt entry; tags and fusion partners are left off. A change or cut given only in a name is not applied to a line headed by its entry.
UniProt Q13308: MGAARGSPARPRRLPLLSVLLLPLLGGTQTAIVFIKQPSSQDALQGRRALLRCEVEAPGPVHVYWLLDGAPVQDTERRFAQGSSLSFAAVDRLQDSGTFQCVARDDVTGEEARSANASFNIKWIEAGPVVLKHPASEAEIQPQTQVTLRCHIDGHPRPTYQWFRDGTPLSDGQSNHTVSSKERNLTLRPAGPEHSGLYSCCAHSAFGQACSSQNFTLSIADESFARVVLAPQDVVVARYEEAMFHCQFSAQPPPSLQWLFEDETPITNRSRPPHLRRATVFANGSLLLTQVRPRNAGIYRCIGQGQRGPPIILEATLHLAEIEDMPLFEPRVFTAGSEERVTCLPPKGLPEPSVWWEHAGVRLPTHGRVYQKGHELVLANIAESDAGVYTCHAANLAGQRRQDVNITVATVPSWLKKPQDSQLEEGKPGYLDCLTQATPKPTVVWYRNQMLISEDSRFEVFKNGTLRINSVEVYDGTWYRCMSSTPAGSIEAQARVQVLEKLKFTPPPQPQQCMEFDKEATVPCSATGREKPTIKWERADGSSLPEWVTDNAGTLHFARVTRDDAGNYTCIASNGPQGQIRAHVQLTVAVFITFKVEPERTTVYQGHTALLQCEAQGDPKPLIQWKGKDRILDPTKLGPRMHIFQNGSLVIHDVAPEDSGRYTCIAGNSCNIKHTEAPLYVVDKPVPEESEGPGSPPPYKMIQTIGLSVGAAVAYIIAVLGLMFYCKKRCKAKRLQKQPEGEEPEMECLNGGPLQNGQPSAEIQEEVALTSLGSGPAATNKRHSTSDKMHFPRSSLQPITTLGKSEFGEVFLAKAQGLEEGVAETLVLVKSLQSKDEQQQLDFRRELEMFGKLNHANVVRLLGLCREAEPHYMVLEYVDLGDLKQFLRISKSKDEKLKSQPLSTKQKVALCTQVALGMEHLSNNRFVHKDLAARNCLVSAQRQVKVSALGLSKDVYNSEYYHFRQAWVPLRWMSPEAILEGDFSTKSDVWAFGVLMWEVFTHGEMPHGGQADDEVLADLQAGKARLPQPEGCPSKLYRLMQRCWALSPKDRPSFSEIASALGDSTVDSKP

binding [1]: binds
B1: hSC6.58 (antibody, human IgG1, V domains shown)
VH: EVQLVESGGGLVQPGGSLRLSCAASGFDFSRYWMSWVRQAPGKGLEWIGDLNPDSSAINYVDSVKGRFTISRDNAKNSLYLQMNSLRAEDTAVYYCTLITTLVPYTMDFWGQGTSVTVSS
VL: ETTLTQSPAFMSATPGDKVNISCITNTDIDDDMNWYQQKPGEAAILLISEGNGLRPGIPPRFSGSGYGTDFTLTINNIESEDAAYYFCLQSDNLPLTFGSGTKLEIKR

binding [2]: binds
B2: SC6.14 (antibody, V domains shown)
VH: QVQLQQPGAELVKPGASVKLSCKASGYTFTSYWMHWVKQRPGQGLEWIGEINPSNGRSNYNEKFKSKATLTVDKSSSTAYMQLSSLTSEDSAVYFCAHYYDGSYGFFDYWGQGTTLTVSS
VL: SIVLTQSLKFLLVSAGDRVTMTCKASQSVTNDVAWYQQKPGQSPKLLIYYASKHYTGVPDRFTGSGYGTDFTFTISTVQAEDLAVYFCQQDYSSPYTFGGGTKLEIKR

binding [2]: binds
B3: SC6.19 (antibody, V domains shown)
VH: EVKLLESGGGLVQPGGSLRLSCAASGFDFSKDWMSWVRQAPGKGLEWIGEINPDSSTINYAPALKDKFIISRENAKNTLYLQMNKVRSEDTALYYCARWSTGLDYWGQGTTLTVSS
VL: DIVMTQSPSSLSVSAGEKVTMSCKSSQSLLNSGNPKNYLAWYQQKPGQPPKLLIYGASTRGSGVPDRFTGSGSGTDFTLTISSVQAEDLAVYYCQNDHTFPYTFGGGTKLEIKR

binding [2]: binds
B4: SC6.3 (antibody, V domains shown)
VH: EVKLLESGGGLVQPGGSLKLSCAASGFDFSKDWMSWVRQAPGKGLEWIGEINPDSRTINYAPSLKDKFIISRENAKNTLYLQMSKVRSEDTALYYCARWDYDGGMDYWGQGTSVTVSS
VL: B3 VL with S32G, P35Q, K36Q, Y38S, G61E, T78A, F100Y, K109E

binding [2]: binds
B5: SC6.15 (antibody, V domains shown)
VH: EVKLLESGGGLVQPGGSLKVSCTASGFDFSRYWMSWVRQAPGKGLEWIGEINPDSSTINYTPSLKDKFIISRDNAKNTLYLQMSKVRSEDTALYYCARPGYGNLFVYWGQGTLVTVSS
VL: DIVLTQSPASLAVSLGQRATISCRASQSVSTSTSIYMHWYQQKPGQPPKLLIKYASNLESGVPARFSGSGSGTEITLNIHPVEEEDTATYYCQHSWEIPWTFGGGTKLEIK

binding [2]: binds
B6: SC6.29 (antibody, V domains shown)
VH: B5 VH with L18Q, V20L, T23A, I58V, S118A
VL: B5 VL with A12T, S34F, I35N, H38N, P44L, E74D, I75F, T87I

binding [2]: binds
B7: SC6.41 (antibody, V domains shown)
VH: EVQLQQSGAESVRSGASVKLSCTASGLNIKDYYMHWVNLRPEQGLEWIGWIDPENGDTEYAPEFQGKATMTADTSSNTAYLQLSSLTSEDTAVYYCNACNYGSAYGYWGQGTTLTVSS
VL: DIVLTQATPSVPVTPGESVSISCRSSKSLLHTKGDTYLYWFLQRPGQSPQLLIYRMSNLASGVPDRFSGSGSGTVFTLRISRVEAEDVGVYYCMQHLEYPFTFGSGTKLEIKR

binding [1]: binds
B8: hSC6.41 (antibody, human IgG1, V domains shown)
VH: QVQLVQSGAEVKKPGASVKVSCKASGYTFKDYYMHWVRQAPGQGLEWMGWIDPENGDTEYAPEFQGRVTMTRDTSTSTVYMELSSLRSEDTAVYYCNACNYGSAYGYWGQGTTLTVSS
VL: DIVMTQSPLSLPVTPGEPASISCRSSKSLLHTKGDTYLYWFLQKPGQSPQLLIYRMSNRASGVPDRFSGSGSGTDFTLKISRVEAEDVGVYYCMQHLEYPFTFGQGTKLEIKR

binding [2]: binds
B9: SC6.21 (antibody, V domains shown)
VH: DVQLQESGPGLVKPSQTLSLTCSVPDYSITSDYHWHWIRQFPGNKLEWMGYISSRGSTNYNPSLKNRISITHDTSENQFFLKLTSVTTEDSATYYCAGLSQLALDYWGQGTTLTVSS
VL: DIVMSQSPSSLAVSVGEKVTLSCKSSQSLLYSSTQNNYLAWYQQTPGQSPKLLIYWASTRESGVPDRFTGSGSGTDFTLTISSVKAEDLAVYYCQQYYSYPWTFGGGTKLEIK

binding [2]: binds
B10: SC6.7 (antibody, V domains shown)
VH: QVQLQQSGAELGRPGASVKLSCKDSGYTITIYWMQWVKQRPGQGLEWIGAIYPGDGDTRYPQKFKGKSTLSADKSSNTASMHLSSLASDDSAVYYCSRGGSTNYDYDGFAYWGQGTLVTVSA
VL: DIQMTQSPASLSVSVGETVTITCRASENIYSNLAWYQQKQGKSPQLLVNAATNLADGVSSRFRGSGSGTQYSLKINSLQSEDFGSYYCQHFWITPFTFGSGTKLERK

binding [2]: binds
B11: SC6.58 (antibody, V domains shown)
VH: EVKLLESGGGLVQPGGSLKLSCAASGFDFSRYWMSWVRQAPGKGLEWIGDLNPDSSAINYTPSLKDKFIISRDNAKNTLYLQMSKVRSEDTALYYCTLITTLVPYTMDFWGQGTSVTVSS
VL: ETTVTQSPASLSMAIGEKVTIRCITNTDIDDDMNWYQQKPGEPPKLLISEGNGLRPGVPSRFSSSGYGTDFVFTIENMLSEDVADYYCLQSDNLPLTFGSGTKLEIK

binding [2]: binds
B12: SC6.24 (antibody, V domains shown)
VH: QVQLQQSGPEVVRPGVSVKISCKGSGYTFTDYAVHWVKLSHAKSLEWIGVISTYNDYTYNNQDFKGKATMTVDKSSSTAYMELARLTSEDSAIYYCARGNSYFYALDYWGQGTSVTVSS
VL: DIVLTQSPASLAVSLGQRATISCRASESVDSYGKSFMHWYQQRPGQPPKLLIYRASNLESGIPARFSGSGSRTDFTLTINPVEADDVATYYCQQSNEDPWTFGGGTKLEIK

B13: SC6.2.35 (antibody, V domains shown)
VH: QVQMQQSGAELMKPGASVKLSCKATGYTFTGYWIEWVKQRPGHGLEWIGEILPGSGRSNSNEKFKGKATFTADTSSNTAYMQLSSLTTEDSAIYYCARGKLSWGQGTLVTVSA
VL: DIVLTQSPASLAVSLGQRATISCRASESVDSFGNSFMHWYQQKPGQPPKLLIYAASNLGSGVPARFSGSGSGTDFSLNIHPVEEDDSAMYFCQQSKEVPRTFGGGSRLEIKR
binding [3]: binds
binding [2]: binds

binding [4]: binds
binding [2]: binds
B14: SC6.23 (antibody, V domains shown)
VH: QVTLKESGPGILKPSQTLSLTCSFSGFSLSTSNMGVGWIRQPSGKGLEWLAHIWWDDDKYYNPSLKSQLTISKDTSRNQVFLKITSVDTEDTATYYCVRSNYGYAWFAYWGQGTLVTVSA
VL: DIKMTQSPSSMYASLGERVTITCKASQDIYPYLNWFQQKPGKSPKTLIYRTNRLLDGVPSRFSGSGSGQDYSLTISSLDYEDMGIYYCLQYDEFPLTFGAGTKLELK

binding [2]: binds
B15: SC6.20 (antibody, V domains shown)
VH: QVQLQQSGPELVKPGASVKISCKASGYPFSTSWMNWVKQRPGKGLEWIGRIYLGDGDTNYNGKFTGKATLTADKSSSTVYMQLSSLTSEDSAVYFCARWRGDYDYWGQGTTLTVSS
VL: DIQMTQTPSSLSASLGDRVTINCRASQGLSNYLNWYQQKPDGTVKLLIYYASILHSGVPSRFTGSGSGTDYSLTISTLEQEDIGTYFCQQGNTLPWTFGGGTKLEIK

Reference: US20180162952A1
